Source: US4154727A, “Dipeptide derivatives and their production” (Shionogi & Co., Ltd., priority 1974, dated 1979)

What was measured:
DS male mice [1] = test: Anti-pentylenetetrazol activity; conditions: for times more potent than diazepam, anti-pentylenetetrazol activity: relative to diazepam (Compound No. 5)
DS male mice [2] = test: Taming activity (inhibition of fighting responses); format: in vivo; conditions: for times more potent than diazepam, taming activity: relative to diazepam (Compound No. 5)
Description: This test was measured on DS male mice. […] These pairs of mice were selected in the morning and used for drug test in the afternoon. The test compound was administered to both mice of the pairs 60 minutes prior to the experiment. Results were obtained as the mean percentage of inhibition of fighting responses in a group of 5 pairs and shown by ED50 [Tedeschi, et al.: J. Pharmacol Exp. Thev., 125, 28-34 (1959)].

[3] = relative to chlordiazepoxide (Compound No. 4)

CN(C(=O)CNC(=O)CN)c1ccc(Cl)cc1C(=O)c1ccccc1F.Cl [Compound No. 3, 2-o-fluorobenzoyl-4-chloro-N-methyl-N^α -glycyl-glycinanilide hydrochloride]
times more potent than diazepam, anti-pentylenetetrazol activity (DS male mice [1]): 2 to 4 times
times more potent than diazepam, taming activity (DS male mice [2]): 2 to 4 times

CN(C(=O)CNC(=O)CN)c1ccc(Cl)cc1C(=O)c1ccccc1 [Compound No. 1, 2-benzoyl-4-chloro-N-methyl-N-glycyl-glycinanilide]
times more potent than chlordiazepoxide, anti-pentylenetetrazol activity (DS male mice [1]; [3]): 2 to 3 times
times more potent than chlordiazepoxide, taming activity (DS male mice [2]; [3]): 2 to 3 times

CN(C(=O)CNC(=O)CN)c1ccc(Cl)cc1C(=O)c1ccccc1Cl.O [Compound No. 2, 2-o-chlorobenzoyl-4-chloro-N-methyl-N^α -glycyl-glycinanilide hydrate]
times more potent than diazepam, anti-pentylenetetrazol activity (DS male mice [1]): 2 to 4 times
times more potent than diazepam, taming activity (DS male mice [2]): 2 to 4 times
